Hit rate of the full screen: of about 310,000 compounds, about 17,000 (5.5%) were called active. Inconclusive means that the source gave no clear call. Such entries were picked first, then a sample of the others. The call rests on the fitted dose curve; in most records, active means well fitted inhibition curve with a large enough effect; inconclusive means small, poorly fitted or top-dose-only effect, or effect the other way; inactive means no such curve, though single readings can be large or run the other way. Potencies beside an inconclusive call are fits to weak or partial responses and may not hold up.
The molecules below were run against Nuclear receptor ROR-gamma (Mus musculus) (UniProt P51450) (assay: qHTS for inhibitors of ROR gamma transcriptional activity). Conditions: Drosophila S2 Gal4-RORgamma UAS-luciferase reporter, 20 h; activity change, negative = inhibition: at 53.6 µM (top of the series).
In short: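 Drosophila S2 cells stably expressing Gal4-DBD/mouse RORγ fusion under metallothionein promoter plus UAS-luciferase; compound 1 h, then 700 uM CuSO4 induction for 20 h at ambient temperature; inhibition read as reduced luminescence.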
Further: nearly all actives have a fitted effect of over 60% in size.
On the % scale 0 is the no-effect control and ±100 the full control effect; potency means the concentration at half of the fitted maximal effect.

The chains behind the UniProt entries cited, without tags or fusion partners. Where a name states a change or a piece, a line headed by the entry shows the natural chain unless it says otherwise.
UniProt P51450: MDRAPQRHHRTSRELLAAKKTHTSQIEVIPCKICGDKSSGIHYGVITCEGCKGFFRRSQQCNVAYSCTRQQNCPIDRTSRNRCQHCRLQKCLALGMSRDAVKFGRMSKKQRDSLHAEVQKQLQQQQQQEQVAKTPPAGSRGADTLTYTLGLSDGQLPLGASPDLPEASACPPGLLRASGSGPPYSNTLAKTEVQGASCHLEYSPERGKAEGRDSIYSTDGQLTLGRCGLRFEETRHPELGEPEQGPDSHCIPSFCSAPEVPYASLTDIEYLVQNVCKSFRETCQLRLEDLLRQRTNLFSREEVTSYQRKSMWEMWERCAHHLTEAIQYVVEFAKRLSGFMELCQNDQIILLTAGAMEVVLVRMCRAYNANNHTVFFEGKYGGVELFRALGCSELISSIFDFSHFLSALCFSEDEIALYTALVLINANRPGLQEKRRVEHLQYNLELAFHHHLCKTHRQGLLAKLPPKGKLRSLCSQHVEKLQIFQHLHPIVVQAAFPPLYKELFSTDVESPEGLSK

Potency, inconclusive:
N#Cc1cc(-c2ccccc2)nc(NN)n1 15.8 µM [inhibitor, single point]
Cc1nc2ccccc2n1CC(O)COc1ccccc1Cl (stereo unspecified) 2.51 µM [inhibitor, partial curve]
N#CC1=C(N)N2C(=C(C#N)C1c1ccc(Br)cc1)Nc1ccccc12 (stereo unspecified) 35.5 µM [inhibitor, single point]
COc1ccc(Nc2cc(C(=O)NCc3ccco3)c3ccccc3n2)c(OC)c1 12.6 µM [activator, partial curve, poor fit]
CCOCc1nc(C)c(Cl)c(NS(=O)(=O)c2ccc(N)cc2)n1 6.31 µM [inhibitor, single point]
ON=C1c2cc(OCCN3CCCCC3)ccc2-c2ccc(OCCN3CCCCC3)cc21 22.4 µM [inhibitor, single point]
CC(C)(C)NC(=O)NC(=O)COC(=O)c1ccc(OC(F)(F)F)cc1 12.6 µM [activator, partial curve]
O=S(=O)(Nc1cccc(-c2cn3cccnc3n2)c1)c1ccc(F)cc1 7.94 µM [activator, partial curve]
COc1ccccc1NC(=O)c1nn(-c2ccccc2)ccc1=O 3.98 µM [activator, full curve]
N#CC1=C(S)N(c2ccc(F)cc2)C2(CCCCC2)NC1=O 4.47 µM [inhibitor, single point]
O=C(NCCc1ccccc1)C1CCN(C(=O)c2sccc2-n2cccc2)CC1 35.5 µM [activator, single point]
Cc1cc(NC(=O)c2cccnc2Cl)ccc1NC(=O)c1cc2ccccc2o1 11.2 µM [activator, single point]
Cc1nn(CCO)c(N)c1C1(O)C(=O)Nc2c(Cl)cc(Cl)cc21 (stereo unspecified) 35.5 µM [inhibitor, single point]
COc1ccc(C2NC(c3ccc(OC)c(OC)c3OC)C(C)C(=O)C2C)c(OC)c1OC (stereo unspecified) 12.6 µM [activator, single point]
CCOc1cc(-n2nc(C)c(C#N)c2N)nc(SC)n1 35.5 µM [activator, single point]
COc1cc2c(cc1OC)C(C(=O)Nc1ccc(F)c(Cl)c1)CC(=O)N2 (stereo unspecified) 35.5 µM [activator, single point]
CC(=O)Nc1ccc(OC/C=C(\C)Cl)cc1 15.8 µM [activator, partial curve]
CCc1nnc(NC(=O)C(C)Sc2ccccc2)s1 (stereo unspecified) 35.5 µM [inhibitor, single point]
COc1cccc(CSc2nnnn2-c2ccc(O)cc2)c1 35.5 µM [activator, single point]
C/C(CC(=O)Nc1ccc(N(C)C)cc1)=N\NC(=O)c1ccc(Cl)cc1 15.8 µM [inhibitor, single point]
COc1ccc2nc(C)cc(N3CC(C)OC(C)C3)c2c1 (stereo unspecified) 12.6 µM [inhibitor, single point]
COc1ccc(CCN2C(=S)N(C)C(=O)C2CC(=O)Nc2ccc(F)cc2)cc1 (stereo unspecified) 10 µM [activator, partial curve]
CC1(C)C(=O)Nc2ccccc2N1C(=O)COc1ncnc2c(Cl)cc(Cl)cc12 14.1 µM [activator, single point]
C/C(=N/NC(=O)c1cc(-c2cccc([N+](=O)[O-])c2)n[nH]1)c1ccc(Cl)cc1 35.5 µM [inhibitor, single point]
N#CCSc1ccc2nc(-c3ccccc3)cn2n1 3.55 µM [activator, partial curve, poor fit]
O=C(Cn1c(=O)c2c(ncn2Cc2ccccc2)n(Cc2ccccc2)c1=O)N1CCCC1 15.8 µM [activator, single point]
O=C(COC(=O)c1cnccn1)c1ccc2ccccc2c1 0.562 µM [inhibitor, single point]
Oc1ccc2ccccc2c1/C=N/Nc1ccccc1 22.4 µM [inhibitor, single point]
O=C(c1ccc(-c2ccccc2)cc1)N1CCN(C(=O)c2ccco2)CC1 31.6 µM [activator, single point]
Cc1cccc(N2CCN(C(=O)CCCSc3nc4ccccc4[nH]3)CC2)c1C 17.8 µM [inhibitor, single point]
CCc1ccc(CN2CCC(C(=O)Nc3cccc(-c4nnc(C)s4)c3)CC2)o1 14.1 µM [inhibitor, partial curve]
O=C(Nc1ccc(C(=O)OC2CCCCC2)cc1)c1ccncc1 20 µM [activator, partial curve]
CC(=O)Nc1ccc(-c2cc3ccccc3o2)cc1 5.01 µM [inhibitor, partial curve]
Cc1sc(NC(=O)CCCC(=O)O)c(C(N)=O)c1-c1ccccc1 5.62 µM [inhibitor, single point]
CCCn1c(-c2ccc(F)cc2)nc2c(NC3CCN(Cc4ccccc4)C3)nc(C)nc21 (stereo unspecified) 25.1 µM [inhibitor, single point]
O=[N+]([O-])c1ccc(-c2cnc(SCc3ccccc3Cl)[nH]2)cc1 17.8 µM [activator, single point]
CC(C)(C)c1ccc(C(=O)NN=C2CCCC2)cc1 0.251 µM [inhibitor, full curve]
O=C(Nc1nc2ccc([N+](=O)[O-])cc2s1)c1c(F)cccc1F 0.794 µM [activator, full curve, poor fit]

Potency, active:
Cc1ccc(/C=N/NC(=S)Nc2cccc(S(=O)(=O)N(C)C)c2)o1 1.26 µM
CCc1ccc(N(CC(=O)NCc2cccnc2)S(=O)(=O)c2ccccc2)cc1 14.1 µM
O=C(COc1ccc(Cl)cc1Cl)N/N=C/c1ccc(OC2OC(CO)C(O)C(O)C2O)cc1 (stereo unspecified) 11.2 µM
CCNC(=S)NNC(=O)c1cc(C2CC2)nc2ccccc12 0.708 µM
COc1cccc(NC(=S)N(CCCN2CCOCC2)C(C)c2cc3ccccc3o2)c1 (stereo unspecified) 11.2 µM
CCC/C=N/Nc1nc2ccccc2s1 11.2 µM
CCNC(=S)N/N=C(\C)c1ccc(N2CCOCC2)cc1 2.51 µM
CN(C)NC(=S)NC1CC2CCC1C2 (stereo unspecified) 5.62 µM
CCNC(=S)NNC(=O)c1c(Cl)c(C)nn1C 6.31 µM
Cc1ccc(OCCCC(=O)Nc2nc3ccccc3[nH]2)cc1 6.31 µM

A run of entries taken from the entries so far, for reference:
Potency, active:
CCc1ccc(N(CC(=O)NCc2cccnc2)S(=O)(=O)c2ccccc2)cc1 14.1 µM
O=C(COc1ccc(Cl)cc1Cl)N/N=C/c1ccc(OC2OC(CO)C(O)C(O)C2O)cc1 (stereo unspecified) 11.2 µM

Following part.

Activity change, negative = inhibition, inactive:
Cc1cc(C)n(C(=O)c2ccc(Cn3nc(C)c(Br)c3C)o2)n1 -14.3%
COc1ccc(-c2nn(C)c(=O)c3ccccc23)cc1NC(=O)Cn1nc(C)c2ccccc2c1=O -33.6%
CC(=O)c1ccc(NC(=O)Cn2cnc(S(=O)(=O)N3CCCCC3)c2)cc1 -9.61%
Cc1cc(OCC(=O)NC2CC(C)(C)NC(C)(C)C2)c(C)cc1Br 0.993%
CCOCCCn1c(=S)[nH]c2cc(C(=O)N3CCN(C4CCCCC4)CC3)ccc2c1=O 0%
COc1cc(C(=O)NC(C)Cc2ccccn2)ccc1OC1CCN(C(C)=O)CC1 (stereo unspecified) -23.5%
Clc1ccc2oc(-c3cccnc3NCc3ccccc3)nc2c1 -2.18%
C=C(CC1([C@@H](NP(=O)(c2ccccc2)c2ccccc2)[C@H]2C[C@@H]2CCN(C(=O)OCC)S(=O)(=O)c2ccc(C)cc2)CC1)c1ccccc1 1.7%
O=C(Cn1c(-c2ccccc2)c[n+]2ccsc12)c1ccc(Br)cc1 36.8%
CCn1nc(NC(=O)COC)c2cc3cccc(C)c3nc21 14.9%
CC(C)Nc1nnc(SCC(=O)Nc2ccc3c(c2)C(=O)c2ccccc2C3=O)s1 -44.9%
COc1cccc(C2CC(c3ccc(Br)cc3)=NN2C(=O)c2ccncc2)c1OC (stereo unspecified) 1.2%
COc1ccc(S(=O)(=O)NCc2ccc(F)cc2)cc1OC -13.3%
COCCCNC(=O)c1ccc2c(=O)n(Cc3ccc4c(c3)OCO4)c(=S)[nH]c2c1 -28.3%
COc1ccc(OC)c(C(=O)Cn2cnc3ccccc3c2=O)c1 4.44%
O=C(CNc1cc(S(=O)(=O)N2CCOCC2)ccc1N1CCCC1)N1CCc2ccccc21 11.8%
Cn1ncc2c(NNC(=O)Cc3ccccc3)ncnc21 16.3%
CSc1nnc(CSCc2ccc(Cl)cc2Cl)n1-c1ccccc1 -11.7%
Cc1ccc2c(c1)COc1c3ccc(C(=O)N[C@@H](C)CO)cc3nn1-2 -43.1%
O=C1Nc2ccc(F)cc2C12SCCS2 -20.1%
C=CCc1cc(/C=N/NC(=O)CSc2nnc(CCCc3ccc(OC)cc3)o2)cc(OC)c1O 18.2%
COc1ccc(N2CCN(C(=S)NCc3ccccc3)CC2)cc1 -8.09%
Cc1ccc(NC(=O)c2cc(-c3ccc(F)cc3)on2)cc1C 10.7%
O=C1OCCN1C(=O)[C@H]1[C@H](c2ccc(F)cc2)C(c2cccc(Cl)c2)=NN1c1ccc(Br)cc1 3.94% [at 40.7 µM]
Cc1cccc(NC(=O)[C@H](Cc2ccccc2)NC(=O)OCc2ccccc2)c1 -8.46%
Cc1ccnc(NS(=O)(=O)c2ccc(NC(=O)c3cc(=O)c4ccccc4o3)cc2)n1 -25.6%
C=C(C)CSc1nc2sc3c(c2c(=O)n1C1CCCCC1)CCN(C)C3 -11.7%
C#CCNC(=O)C1=C[C@@H](c2cn(C(C)=O)c3ccccc23)C[C@@H](OCc2ccc(CO)cc2)O1 7.6%

4 structures already listed, arranged by length of the SMILES, smallest number first.
Activity change, negative = inhibition, inactive:
O=C1Nc2ccc(F)cc2C12SCCS2 -20.1%
Cc1cc(OCC(=O)NC2CC(C)(C)NC(C)(C)C2)c(C)cc1Br 0.993%
Cc1ccnc(NS(=O)(=O)c2ccc(NC(=O)c3cc(=O)c4ccccc4o3)cc2)n1 -25.6%
O=C1OCCN1C(=O)[C@H]1[C@H](c2ccc(F)cc2)C(c2cccc(Cl)c2)=NN1c1ccc(Br)cc1 3.94% [at 40.7 µM]

Reference: PubChem BioAssay AID2551 (National Center for Advancing Translational Sciences (NCATS), 2010)
